# Source: the supplement of paper PMC10849652
# Amino acid sequences for entries named in this document (tags omitted). A change or cut given only in a name is not applied to a line headed by its entry.
# UniProt P53602: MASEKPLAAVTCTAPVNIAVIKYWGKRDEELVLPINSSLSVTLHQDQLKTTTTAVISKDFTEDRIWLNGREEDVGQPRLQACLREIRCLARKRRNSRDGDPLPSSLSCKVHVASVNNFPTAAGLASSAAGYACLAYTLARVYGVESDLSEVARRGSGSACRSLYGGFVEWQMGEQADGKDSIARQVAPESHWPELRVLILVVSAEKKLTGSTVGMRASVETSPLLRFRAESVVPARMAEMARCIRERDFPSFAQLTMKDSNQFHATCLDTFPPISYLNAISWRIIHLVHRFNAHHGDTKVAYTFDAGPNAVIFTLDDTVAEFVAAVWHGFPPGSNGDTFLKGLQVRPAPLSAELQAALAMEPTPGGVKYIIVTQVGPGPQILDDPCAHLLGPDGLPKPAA
# UniProt P60660, whole entry, looked up: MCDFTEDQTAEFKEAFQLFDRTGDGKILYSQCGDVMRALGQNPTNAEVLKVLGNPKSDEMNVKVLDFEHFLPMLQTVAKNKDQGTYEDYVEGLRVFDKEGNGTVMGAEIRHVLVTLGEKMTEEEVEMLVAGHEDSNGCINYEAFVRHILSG
# UniProt P12829: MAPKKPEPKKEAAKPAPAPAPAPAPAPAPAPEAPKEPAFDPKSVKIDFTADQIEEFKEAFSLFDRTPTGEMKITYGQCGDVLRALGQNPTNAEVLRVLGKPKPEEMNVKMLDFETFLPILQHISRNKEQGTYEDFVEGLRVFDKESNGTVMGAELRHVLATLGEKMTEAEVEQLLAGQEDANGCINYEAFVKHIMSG
# UniProt P52701: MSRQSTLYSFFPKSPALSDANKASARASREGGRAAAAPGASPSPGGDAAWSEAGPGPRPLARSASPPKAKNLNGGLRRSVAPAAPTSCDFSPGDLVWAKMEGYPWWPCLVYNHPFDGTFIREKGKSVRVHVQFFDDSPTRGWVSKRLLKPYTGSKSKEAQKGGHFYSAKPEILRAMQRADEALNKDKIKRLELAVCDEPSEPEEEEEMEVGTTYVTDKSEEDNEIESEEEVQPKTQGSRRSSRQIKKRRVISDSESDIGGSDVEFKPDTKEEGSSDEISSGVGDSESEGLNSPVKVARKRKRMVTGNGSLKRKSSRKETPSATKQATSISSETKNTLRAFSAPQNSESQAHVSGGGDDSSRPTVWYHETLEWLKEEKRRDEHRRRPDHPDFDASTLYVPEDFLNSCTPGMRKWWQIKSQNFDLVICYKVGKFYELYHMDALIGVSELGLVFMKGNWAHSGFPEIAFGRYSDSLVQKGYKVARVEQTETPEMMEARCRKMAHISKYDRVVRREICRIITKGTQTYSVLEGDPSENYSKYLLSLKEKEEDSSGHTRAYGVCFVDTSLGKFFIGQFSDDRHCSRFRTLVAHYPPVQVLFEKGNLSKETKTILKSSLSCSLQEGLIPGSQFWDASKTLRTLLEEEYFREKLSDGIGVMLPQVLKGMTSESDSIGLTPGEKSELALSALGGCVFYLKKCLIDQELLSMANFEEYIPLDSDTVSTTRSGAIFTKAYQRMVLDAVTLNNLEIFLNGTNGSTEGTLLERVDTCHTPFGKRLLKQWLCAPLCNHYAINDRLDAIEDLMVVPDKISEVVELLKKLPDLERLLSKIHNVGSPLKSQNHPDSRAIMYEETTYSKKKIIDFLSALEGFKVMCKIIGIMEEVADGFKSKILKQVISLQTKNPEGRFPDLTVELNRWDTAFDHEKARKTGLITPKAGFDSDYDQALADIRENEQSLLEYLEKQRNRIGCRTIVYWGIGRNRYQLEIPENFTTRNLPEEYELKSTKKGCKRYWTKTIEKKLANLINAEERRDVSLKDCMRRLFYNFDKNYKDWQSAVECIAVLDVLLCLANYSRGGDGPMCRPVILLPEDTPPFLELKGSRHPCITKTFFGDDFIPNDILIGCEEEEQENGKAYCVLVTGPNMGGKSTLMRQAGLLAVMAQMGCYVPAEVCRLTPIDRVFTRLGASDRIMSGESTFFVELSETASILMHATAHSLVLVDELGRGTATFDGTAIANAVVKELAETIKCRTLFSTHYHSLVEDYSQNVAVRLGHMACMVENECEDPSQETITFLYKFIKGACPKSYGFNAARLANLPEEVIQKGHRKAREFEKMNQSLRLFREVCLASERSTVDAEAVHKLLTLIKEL
# UniProt Q92614: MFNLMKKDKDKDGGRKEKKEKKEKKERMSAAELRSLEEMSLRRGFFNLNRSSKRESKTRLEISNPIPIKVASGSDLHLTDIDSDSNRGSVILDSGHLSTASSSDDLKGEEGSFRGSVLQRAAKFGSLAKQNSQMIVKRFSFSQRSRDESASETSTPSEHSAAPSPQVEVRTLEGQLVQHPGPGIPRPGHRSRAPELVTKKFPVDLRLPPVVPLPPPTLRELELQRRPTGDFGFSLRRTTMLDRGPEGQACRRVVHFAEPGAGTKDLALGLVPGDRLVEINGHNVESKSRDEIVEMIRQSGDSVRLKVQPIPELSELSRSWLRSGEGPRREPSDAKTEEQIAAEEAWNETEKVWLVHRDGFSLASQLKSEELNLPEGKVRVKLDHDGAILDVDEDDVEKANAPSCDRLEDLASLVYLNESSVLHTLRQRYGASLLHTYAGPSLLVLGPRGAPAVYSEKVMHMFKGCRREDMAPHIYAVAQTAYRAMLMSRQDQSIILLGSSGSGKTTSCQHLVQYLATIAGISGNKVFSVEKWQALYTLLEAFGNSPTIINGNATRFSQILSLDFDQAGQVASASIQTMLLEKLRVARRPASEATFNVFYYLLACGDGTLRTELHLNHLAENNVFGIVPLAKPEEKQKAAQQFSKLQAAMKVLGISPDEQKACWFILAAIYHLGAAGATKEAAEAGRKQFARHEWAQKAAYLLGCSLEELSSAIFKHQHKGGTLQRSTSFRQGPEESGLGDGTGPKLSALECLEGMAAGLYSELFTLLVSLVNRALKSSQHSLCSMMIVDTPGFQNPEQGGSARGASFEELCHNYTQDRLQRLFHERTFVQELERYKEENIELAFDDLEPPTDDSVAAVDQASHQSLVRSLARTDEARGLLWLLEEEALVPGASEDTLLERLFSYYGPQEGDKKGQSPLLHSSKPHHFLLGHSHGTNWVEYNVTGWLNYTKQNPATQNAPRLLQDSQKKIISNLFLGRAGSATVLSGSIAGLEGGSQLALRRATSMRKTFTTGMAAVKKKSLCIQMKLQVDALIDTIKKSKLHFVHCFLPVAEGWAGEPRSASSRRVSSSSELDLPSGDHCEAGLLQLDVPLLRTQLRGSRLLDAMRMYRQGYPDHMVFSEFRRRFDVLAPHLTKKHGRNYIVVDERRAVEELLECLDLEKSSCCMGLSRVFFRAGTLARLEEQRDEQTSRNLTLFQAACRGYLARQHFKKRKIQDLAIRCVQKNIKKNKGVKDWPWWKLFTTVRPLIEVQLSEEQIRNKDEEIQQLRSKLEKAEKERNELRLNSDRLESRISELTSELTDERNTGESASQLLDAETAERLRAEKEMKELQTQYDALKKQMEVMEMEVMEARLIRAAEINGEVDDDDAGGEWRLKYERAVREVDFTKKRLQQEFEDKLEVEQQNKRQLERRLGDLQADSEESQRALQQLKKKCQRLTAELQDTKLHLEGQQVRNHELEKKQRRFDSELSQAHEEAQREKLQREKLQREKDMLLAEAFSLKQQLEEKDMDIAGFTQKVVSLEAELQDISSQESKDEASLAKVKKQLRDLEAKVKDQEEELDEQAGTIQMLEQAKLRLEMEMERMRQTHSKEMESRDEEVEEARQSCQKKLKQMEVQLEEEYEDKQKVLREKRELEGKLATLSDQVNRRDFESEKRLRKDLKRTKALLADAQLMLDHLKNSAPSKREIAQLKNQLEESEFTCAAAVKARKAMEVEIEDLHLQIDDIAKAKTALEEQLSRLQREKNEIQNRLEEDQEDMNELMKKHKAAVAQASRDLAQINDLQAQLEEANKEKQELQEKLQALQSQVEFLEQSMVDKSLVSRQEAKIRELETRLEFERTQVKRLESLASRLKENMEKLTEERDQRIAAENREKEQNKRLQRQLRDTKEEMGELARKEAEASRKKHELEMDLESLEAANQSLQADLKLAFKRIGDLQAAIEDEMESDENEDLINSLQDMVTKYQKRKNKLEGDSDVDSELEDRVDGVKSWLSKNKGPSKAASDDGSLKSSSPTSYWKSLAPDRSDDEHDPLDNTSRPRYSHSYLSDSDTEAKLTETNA
# UniProt P43246, whole entry, looked up: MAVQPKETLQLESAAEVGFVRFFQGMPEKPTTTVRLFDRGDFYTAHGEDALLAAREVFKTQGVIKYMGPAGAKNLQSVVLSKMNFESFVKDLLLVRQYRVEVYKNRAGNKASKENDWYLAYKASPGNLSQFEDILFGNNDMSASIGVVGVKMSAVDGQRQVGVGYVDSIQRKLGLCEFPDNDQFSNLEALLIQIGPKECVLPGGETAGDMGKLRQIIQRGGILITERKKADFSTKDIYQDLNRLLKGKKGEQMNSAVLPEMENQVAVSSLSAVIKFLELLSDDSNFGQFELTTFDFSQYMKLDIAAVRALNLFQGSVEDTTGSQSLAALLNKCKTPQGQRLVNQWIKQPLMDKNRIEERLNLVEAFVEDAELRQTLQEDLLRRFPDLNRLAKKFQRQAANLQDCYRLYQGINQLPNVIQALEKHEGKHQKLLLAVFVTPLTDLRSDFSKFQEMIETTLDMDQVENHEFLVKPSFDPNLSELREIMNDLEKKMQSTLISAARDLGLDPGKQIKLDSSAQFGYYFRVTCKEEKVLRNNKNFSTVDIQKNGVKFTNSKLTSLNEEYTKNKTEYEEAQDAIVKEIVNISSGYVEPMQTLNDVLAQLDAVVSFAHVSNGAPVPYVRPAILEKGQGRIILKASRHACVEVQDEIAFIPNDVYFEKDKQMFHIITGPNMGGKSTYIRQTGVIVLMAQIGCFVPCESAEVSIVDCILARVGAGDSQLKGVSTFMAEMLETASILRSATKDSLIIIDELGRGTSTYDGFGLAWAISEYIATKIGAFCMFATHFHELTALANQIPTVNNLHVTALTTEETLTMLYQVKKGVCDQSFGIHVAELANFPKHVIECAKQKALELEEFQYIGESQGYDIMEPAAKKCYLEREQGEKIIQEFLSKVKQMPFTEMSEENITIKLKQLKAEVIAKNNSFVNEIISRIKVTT
# UniProt Q9UDX5: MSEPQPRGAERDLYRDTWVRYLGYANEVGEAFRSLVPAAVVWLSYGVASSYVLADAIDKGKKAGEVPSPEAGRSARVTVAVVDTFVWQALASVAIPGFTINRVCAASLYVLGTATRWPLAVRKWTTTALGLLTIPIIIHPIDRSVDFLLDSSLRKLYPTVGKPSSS
# UniProt Q969V5: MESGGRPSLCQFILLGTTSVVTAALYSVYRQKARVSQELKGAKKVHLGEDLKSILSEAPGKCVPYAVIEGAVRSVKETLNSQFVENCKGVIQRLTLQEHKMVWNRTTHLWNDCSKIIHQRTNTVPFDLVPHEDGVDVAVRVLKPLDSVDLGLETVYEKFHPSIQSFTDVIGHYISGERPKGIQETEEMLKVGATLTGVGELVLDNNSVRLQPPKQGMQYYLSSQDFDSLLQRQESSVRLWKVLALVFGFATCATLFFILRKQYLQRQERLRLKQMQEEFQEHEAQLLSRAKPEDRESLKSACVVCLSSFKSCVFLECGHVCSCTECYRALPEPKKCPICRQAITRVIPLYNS
# UniProt P03905, whole entry, looked up: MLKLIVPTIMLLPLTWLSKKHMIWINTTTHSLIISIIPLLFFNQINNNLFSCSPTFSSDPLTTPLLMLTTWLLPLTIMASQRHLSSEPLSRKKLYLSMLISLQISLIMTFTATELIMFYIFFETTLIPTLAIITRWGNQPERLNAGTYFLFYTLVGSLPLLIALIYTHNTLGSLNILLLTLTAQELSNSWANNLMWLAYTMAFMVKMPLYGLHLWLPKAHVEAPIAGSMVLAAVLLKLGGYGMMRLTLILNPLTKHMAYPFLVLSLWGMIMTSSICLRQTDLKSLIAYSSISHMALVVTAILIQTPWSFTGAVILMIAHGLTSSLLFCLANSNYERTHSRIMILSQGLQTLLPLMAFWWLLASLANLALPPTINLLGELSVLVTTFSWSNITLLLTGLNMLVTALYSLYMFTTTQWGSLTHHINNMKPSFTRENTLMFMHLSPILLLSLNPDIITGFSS
# The list shows a part of the results.
# Legend:
# Assay in all cases: log2 fold change, soluble protein after heating vs DMSO (PISA); higher = thermal stabilisation; K562 cells, 10 uM, 30 min; active = over 0.2 and 3.5 SD of the protein, either way, in both replicates (recomputed)
# bafetinib = compound: Cc1ccc(NC(=O)c2ccc(CN3CC[C@H](N(C)C)C3)c(C(F)(F)F)c2)cc1Nc1nccc(-c2cncnc2)n1 [bafetinib]
# Method in brief: (§1)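 Values are thermal stability changes relative to control samples and are taken from duplicates. They are stated as log2 fold changes. Before quantification by TMTpro 16plex LC-MS/MS with equalised channel sums, K562 cells at 2×10^6 cells/mL were treated with 10 μM compound for 30 min, heated in aliquots for 3 min across 48°C-58°C, pooled, extracted in PBS with 0.5% NP-40 at 4°C, and centrifuged at 21,000xg for 90 min to give the soluble supernatant.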
# [1] = compound: Cc1cccc(CC(=O)N2CCc3c2ccc(-c2cn(C)c4ncnc(N)c24)c3F)n1
# Method in brief: as §1
# nilotinib = compound: Cc1cn(-c2cc(NC(=O)c3ccc(C)c(Nc4nccc(-c5cccnc5)n4)c3)cc(C(F)(F)F)c2)cn1 [nilotinib]
# Method in brief: as §1
# [2] = compound: Cc1nc(Nc2n[nH]c3c2CN(C(=O)N[C@H](CN(C)C)c2ccccc2)C3(C)C)c2sccc2n1
# Method in brief: as §1
# dasatinib = compound: Cc1nc(Nc2ncc(C(=O)Nc3c(C)cccc3Cl)s2)cc(N2CCN(CCO)CC2)n1 [dasatinib]
# Method in brief: as §1
# [3] = compound: Cc1ncc(-c2ccnc(Nc3ccc(S(C)(=O)=O)cc3)n2)n1C(C)C
# Method in brief: as §1
# [4] = compound: Cn1cc(-c2ccc3c(c2)CCN3C(=O)Cc2cccc(C(F)(F)F)c2)c2c(N)ncnc21
# Method in brief: as §1
# [5] = compound: Cn1cc(-c2ccc3nnc(C(F)(F)c4ccc5ncccc5c4)n3n2)cn1
# Method in brief: as §1
# tipifarnib = compound: Cn1cncc1[C@@](N)(c1ccc(Cl)cc1)c1ccc2c(c1)c(-c1cccc(Cl)c1)cc(=O)n2C [tipifarnib]
# Method in brief: as §1
# mubritinib = compound: FC(F)(F)c1ccc(/C=C/c2nc(COc3ccc(CCCCn4ccnn4)cc3)co2)cc1 [mubritinib]
# Method in brief: as §1
# [6] = compound: NC(=O)Nc1cc(-c2cccc(F)c2)sc1C(=O)N[C@H]1CCCNC1
# Method in brief: as §1
# [7] = compound: NC(=O)c1cnc(N[C@@H]2CCCC[C@@H]2N)nc1Nc1cccc(-n2nccn2)c1
# Method in brief: as §1
# [8] = compound: NC1(c2ccc(-c3nc4ccn5c(=O)[nH]nc5c4cc3-c3ccccc3)cc2)CCC1
# Method in brief: as §1
# [9] = compound: NCC(=O)Nc1ccc(-n2nc(C(F)(F)F)cc2-c2ccc3c(ccc4ccccc43)c2)cc1
# Method in brief: as §1
# entinostat = compound: Nc1ccccc1NC(=O)c1ccc(CNC(=O)OCc2cccnc2)cc1 [entinostat]
# Method in brief: as §1
# vorinostat = compound: O=C(CCCCCCC(=O)Nc1ccccc1)NO [vorinostat]
# Method in brief: as §1
# citarinostat = compound: O=C(CCCCCCNC(=O)c1cnc(N(c2ccccc2)c2ccccc2Cl)nc1)NO [citarinostat]
# Method in brief: as §1
# silmitasertib = compound: O=C(O)c1ccc2c(c1)nc(Nc1cccc(Cl)c1)c1ccncc12 [silmitasertib]
# Method in brief: as §1
# [10] = compound: O=C1NC(=O)C(c2cnc3ccccn23)=C1c1cn2c3c(cc(F)cc13)CN(C(=O)N1CCCCC1)CC2
# Method in brief: as §1
# [11] = compound: c1cc(OCCN2CCCCC2)cc(-c2n[nH]c3ccc(-c4nnc[nH]4)cc23)c1
# Method in brief: as §1
Target,log2 fold change (bafetinib),log2 fold change [1],log2 fold change (nilotinib),log2 fold change [2],log2 fold change (dasatinib),log2 fold change [3],log2 fold change [4],log2 fold change [5],log2 fold change (tipifarnib),log2 fold change (mubritinib),log2 fold change [6],log2 fold change [7],log2 fold change [8],log2 fold change [9],log2 fold change (entinostat),log2 fold change (vorinostat),log2 fold change (citarinostat),log2 fold change (silmitasertib),log2 fold change [10],log2 fold change [11]
MVD (UniProt P53602),inactive: -0.027,inactive: 0.03,inactive: 0.03,inactive: -0.037,inactive: 0.094,inactive: 0,inactive: 0.083,inactive: -0.024,inactive: -0.059,inactive: 0.017,inactive: -0.007,inactive: -0.017,inactive: -0.06,inactive: -0.004,inactive: -0.017,inactive: -0.006,inactive: 0.02,inactive: -0.077,inactive: -0.061,inactive: 0
MRPS5 (UniProt P82675),inactive: 0.153,inactive: 0.159,inactive: -0.287,inactive: 0.118,inactive: -0.073,inactive: 0.067,inactive: 0.039,inactive: 0.087,inactive: -0.13,inactive: 0.22,inactive: 0.009,inactive: 0.034,inactive: -0.057,inactive: 0.013,inactive: 0,inactive: 0.125,inactive: 0.023,inactive: -0.043,inactive: -0.039,inactive: -0.018
MRPS17 (UniProt Q9Y2R5),inactive: 0.264,inactive: -0.01,inactive: -0.314,inactive: 0.067,inactive: -0.122,inactive: -0.012,inactive: -0.052,inactive: 0.035,inactive: -0.088,inactive: 0.179,inactive: -0.035,inactive: 0.091,inactive: -0.138,inactive: -0.018,inactive: -0.027,inactive: 0.191,inactive: 0.05,inactive: -0.051,inactive: -0.047,inactive: 0.02
MRPS35 (UniProt P82673),inactive: 0.038,inactive: 0.115,inactive: -0.134,inactive: 0.088,inactive: -0.004,inactive: -0.071,inactive: -0.039,inactive: 0.017,inactive: 0.024,inactive: 0.091,inactive: 0.035,inactive: -0.07,inactive: -0.082,inactive: 0.012,inactive: -0.027,inactive: 0.088,inactive: -0.011,inactive: -0.119,inactive: -0.033,inactive: -0.03
MRPS18B (UniProt Q9Y676),inactive: 0.125,inactive: 0.055,inactive: -0.154,inactive: 0.098,inactive: -0.024,inactive: -0.342,inactive: 0.005,inactive: 0.081,inactive: -0.059,inactive: 0.172,inactive: 0.133,inactive: 0,inactive: 0.021,inactive: 0.105,inactive: -0.047,inactive: 0.08,inactive: -0.03,inactive: -0.061,inactive: -0.03,inactive: -0.026
MRPS7 (UniProt Q9Y2R9),inactive: 0.094,inactive: 0.099,inactive: -0.127,inactive: -0.014,inactive: 0.07,inactive: -0.037,inactive: -0.046,inactive: 0.018,inactive: -0.026,inactive: 0.073,inactive: -0.001,inactive: 0.002,inactive: -0.013,inactive: 0.081,inactive: 0.029,inactive: 0.042,inactive: 0.012,inactive: -0.096,inactive: 0.021,inactive: -0.11
MYL6 isoform 2 (UniProt P60660),inactive: -0.066,inactive: -0.001,inactive: -0.03,inactive: -0.073,inactive: 0.016,inactive: -0.025,inactive: 0.015,inactive: -0.011,inactive: -0.007,inactive: 0.044,inactive: 0.033,inactive: -0.01,inactive: -0.079,inactive: -0.018,inactive: 0.11,inactive: 0,inactive: -0.002,inactive: 0.028,inactive: -0.076,inactive: 0.007
MYL4 (UniProt P12829),inactive: -0.026,inactive: -0.027,inactive: 0.024,inactive: 0.01,inactive: 0.086,inactive: -0.005,inactive: 0.023,inactive: -0.008,inactive: 0.037,inactive: 0.024,inactive: 0.041,inactive: 0.033,inactive: 0.033,inactive: 0.008,inactive: 0.04,inactive: -0.028,inactive: -0.001,inactive: -0.006,inactive: -0.034,inactive: -0.045
MSH6 (UniProt P52701),inactive: -0.019,inactive: 0.101,inactive: -0.116,inactive: -0.179,inactive: -0.325,inactive: -0.1,inactive: 0.139,inactive: 0.167,inactive: -0.174,inactive: 0,inactive: -0.033,inactive: -0.091,inactive: -0.213,inactive: -0.191,inactive: 0.229,inactive: 0.273,inactive: 0.347,inactive: 0.14,inactive: -0.169,inactive: 0.097
MYO18A (UniProt Q92614),inactive: 0.031,inactive: -0.026,inactive: -0.014,inactive: -0.119,inactive: 0.01,inactive: -0.057,inactive: -0.049,inactive: -0.045,inactive: -0.01,inactive: -0.076,inactive: -0.05,inactive: -0.042,inactive: 0.114,inactive: 0.015,inactive: -0.06,inactive: 0.02,inactive: -0.206,inactive: 0.002,inactive: 0.015,inactive: 0.016
MSH2 (UniProt P43246),inactive: 0,inactive: 0.04,inactive: -0.003,inactive: -0.103,inactive: -0.038,inactive: 0.034,inactive: 0.024,inactive: 0.035,inactive: -0.063,inactive: 0.156,inactive: -0.069,inactive: -0.06,inactive: -0.109,inactive: -0.138,inactive: 0.074,inactive: 0.032,inactive: 0.089,inactive: 0.037,inactive: -0.091,inactive: -0.003
MRPS34 (UniProt P82930),inactive: 0.229,inactive: 0.156,inactive: -0.093,inactive: 0.044,inactive: -0.041,inactive: -0.057,inactive: -0.003,inactive: -0.152,inactive: -0.07,inactive: 0.082,inactive: 0.012,inactive: 0.021,inactive: -0.091,inactive: 0.04,inactive: 0,inactive: 0.156,inactive: -0.053,inactive: -0.092,inactive: -0.072,inactive: -0.06
MTFP1 (UniProt Q9UDX5),inactive: -0.079,inactive: -0.069,inactive: -0.003,inactive: -0.015,inactive: 0.045,inactive: -0.008,inactive: 0.039,inactive: 0.087,inactive: -0.036,inactive: 0.017,inactive: -0.062,inactive: -0.014,inactive: 0.011,inactive: -0.076,inactive: 0.008,inactive: -0.095,inactive: -0.017,inactive: 0.014,inactive: -0.032,inactive: -0.108
MYH10 isoform 3 (UniProt P35580),inactive: -0.046,inactive: 0.033,inactive: -0.049,inactive: -0.001,inactive: -0.057,inactive: 0.004,inactive: 0.056,inactive: 0.011,inactive: -0.083,inactive: 0.059,inactive: 0.014,inactive: -0.026,inactive: -0.102,inactive: -0.035,inactive: 0.019,inactive: 0.004,inactive: 0.041,inactive: -0.008,inactive: -0.036,inactive: 0.013
MUL1 (UniProt Q969V5),inactive: -0.018,inactive: 0.042,inactive: 0.004,inactive: 0.044,inactive: 0.011,inactive: -0.059,inactive: 0.036,inactive: 0.016,inactive: -0.037,inactive: -0.023,inactive: -0.029,inactive: -0.041,active: 0.648,inactive: -0.024,inactive: -0.007,inactive: 0.086,inactive: -0.002,inactive: -0.018,inactive: -0.021,inactive: -0.049
MT-ND4 (UniProt P03905),inactive: -0.016,inactive: -0.118,inactive: 0.006,inactive: -0.033,inactive: -0.009,inactive: -0.003,inactive: -0.004,inactive: -0.045,inactive: 0.173,inactive: 0.05,inactive: 0.052,inactive: 0.038,inactive: -0.046,inactive: -0.074,inactive: 0.099,inactive: 0.261,inactive: 0.198,inactive: -0.011,inactive: 0.088,inactive: -0.057

# Whole records, quoted from the list. Values in the order: log2 fold change (bafetinib)	log2 fold change [1]	log2 fold change (nilotinib)	log2 fold change [2]	log2 fold change (dasatinib)	log2 fold change [3]	log2 fold change [4]	log2 fold change [5]	log2 fold change (tipifarnib)	log2 fold change (mubritinib)	log2 fold change [6]	log2 fold change [7]	log2 fold change [8]	log2 fold change [9]	log2 fold change (entinostat)	log2 fold change (vorinostat)	log2 fold change (citarinostat)	log2 fold change (silmitasertib)	log2 fold change [10]	log2 fold change [11]
# MSH2 (UniProt P43246) as listed: inactive: 0	inactive: 0.04	inactive: -0.003	inactive: -0.103	inactive: -0.038	inactive: 0.034	inactive: 0.024	inactive: 0.035	inactive: -0.063	inactive: 0.156	inactive: -0.069	inactive: -0.06	inactive: -0.109	inactive: -0.138	inactive: 0.074	inactive: 0.032	inactive: 0.089	inactive: 0.037	inactive: -0.091	inactive: -0.003
# MRPS18B (UniProt Q9Y676) as listed: inactive: 0.125	inactive: 0.055	inactive: -0.154	inactive: 0.098	inactive: -0.024	inactive: -0.342	inactive: 0.005	inactive: 0.081	inactive: -0.059	inactive: 0.172	inactive: 0.133	inactive: 0	inactive: 0.021	inactive: 0.105	inactive: -0.047	inactive: 0.08	inactive: -0.03	inactive: -0.061	inactive: -0.03	inactive: -0.026
